Measurements published in paper PMC12541625.
Results are given in words; binding and its absence hold for the method and conditions named. In cells and extracts the contact can be indirect. Some binding calls cover weakened binding; strength is not graded here.

By UniProt entry, the sequences of proteins in these tests, tags left out.
UniProt B2KF05: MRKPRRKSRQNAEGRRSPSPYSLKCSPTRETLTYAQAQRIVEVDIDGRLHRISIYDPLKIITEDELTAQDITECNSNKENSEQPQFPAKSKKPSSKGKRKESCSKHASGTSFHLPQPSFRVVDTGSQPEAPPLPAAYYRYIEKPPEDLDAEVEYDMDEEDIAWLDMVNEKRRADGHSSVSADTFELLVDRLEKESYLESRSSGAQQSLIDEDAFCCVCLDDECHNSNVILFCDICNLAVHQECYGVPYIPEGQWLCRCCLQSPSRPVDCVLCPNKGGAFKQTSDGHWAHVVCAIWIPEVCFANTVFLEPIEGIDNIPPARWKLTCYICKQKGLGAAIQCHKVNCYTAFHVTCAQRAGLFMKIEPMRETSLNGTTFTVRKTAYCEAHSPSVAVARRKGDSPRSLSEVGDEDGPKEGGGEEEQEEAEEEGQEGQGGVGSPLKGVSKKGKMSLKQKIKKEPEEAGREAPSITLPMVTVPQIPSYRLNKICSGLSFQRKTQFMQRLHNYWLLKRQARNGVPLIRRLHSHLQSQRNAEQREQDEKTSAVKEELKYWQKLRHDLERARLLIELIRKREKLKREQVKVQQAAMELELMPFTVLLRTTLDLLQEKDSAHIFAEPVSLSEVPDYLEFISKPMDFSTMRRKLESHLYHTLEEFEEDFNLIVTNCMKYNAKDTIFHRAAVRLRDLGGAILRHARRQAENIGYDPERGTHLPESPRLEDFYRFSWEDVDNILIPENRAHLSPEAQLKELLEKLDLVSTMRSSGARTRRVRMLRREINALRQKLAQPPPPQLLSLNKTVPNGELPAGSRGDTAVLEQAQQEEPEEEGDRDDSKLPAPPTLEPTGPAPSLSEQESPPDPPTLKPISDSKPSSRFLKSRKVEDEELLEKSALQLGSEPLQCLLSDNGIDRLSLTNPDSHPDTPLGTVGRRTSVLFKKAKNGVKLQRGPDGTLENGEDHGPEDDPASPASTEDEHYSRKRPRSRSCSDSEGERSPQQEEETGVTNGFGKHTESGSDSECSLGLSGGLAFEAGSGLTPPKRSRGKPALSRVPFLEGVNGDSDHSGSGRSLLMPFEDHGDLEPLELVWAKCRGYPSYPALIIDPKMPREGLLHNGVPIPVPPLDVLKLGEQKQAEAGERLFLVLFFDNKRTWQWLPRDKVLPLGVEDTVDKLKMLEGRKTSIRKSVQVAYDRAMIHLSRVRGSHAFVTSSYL
UniProt Q5SVQ0: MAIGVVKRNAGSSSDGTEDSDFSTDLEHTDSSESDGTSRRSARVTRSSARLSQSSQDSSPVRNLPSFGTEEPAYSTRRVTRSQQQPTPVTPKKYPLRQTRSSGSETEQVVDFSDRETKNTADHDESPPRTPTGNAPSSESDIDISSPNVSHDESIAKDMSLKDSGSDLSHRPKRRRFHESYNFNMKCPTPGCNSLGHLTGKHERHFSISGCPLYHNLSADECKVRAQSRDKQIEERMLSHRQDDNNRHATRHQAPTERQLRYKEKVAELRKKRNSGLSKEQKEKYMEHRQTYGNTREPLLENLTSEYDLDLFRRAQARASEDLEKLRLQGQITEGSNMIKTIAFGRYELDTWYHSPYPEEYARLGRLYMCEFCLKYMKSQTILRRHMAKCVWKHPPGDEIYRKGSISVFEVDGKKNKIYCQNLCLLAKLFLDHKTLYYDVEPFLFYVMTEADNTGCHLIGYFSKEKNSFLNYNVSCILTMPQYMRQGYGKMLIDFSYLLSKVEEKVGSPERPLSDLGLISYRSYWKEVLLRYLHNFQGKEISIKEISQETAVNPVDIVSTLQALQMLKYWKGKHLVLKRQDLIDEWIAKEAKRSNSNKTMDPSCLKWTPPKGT

What was measured:
[1] = target: BRPF3 (in mouse heart tissue) (mouse (endogenous in heart tissue)) (UniProt B2KF05); assay: co-IP; Co-IP and WB analysis in mouse heart tissue; antibody and bait not stated
[2] = target: Flag-tagged full-length BRPF3 (UniProt B2KF05); assay: co-IP; CFs lysed in Co-IP lysis buffer with protease inhibitor; capture with flag antibody and Protein A/G magnetic beads at 4 °C overnight; immunoblot; IgG as negative control

binding [1]: binds
binding [2]: binds
Substance: KAT7 (in mouse cardiac fibroblasts and mouse heart tissue) (from UniProt Q5SVQ0 1-613) (enzyme)
